Some of the results follow. Repeats are few or missing, and single values can be far off.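 The apoptosis fraction was the count of cleaved-PARP antibody-stained nuclei relative to all DNA-stained nuclei, imaged in 1,536-well plates. Screening doses were set so most cells survived, and baseline and induced cleaved-PARP levels vary greatly across cell lines.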
Experiments:
Test in all cases: cleaved PARP positive nuclei fraction relative to DMSO control; melanoma cells; higher = more apoptosis
Conditions in all cases: library dose: low library concentration; 72 h
MZ2-MEL = test system: MZ2-MEL
MeWo = test system: MeWo
RPMI7951 = test system: RPMI7951
RVH-421 = test system: RVH-421
SkMel28 = test system: SkMel28
SkMel2 = test system: SkMel2
SkMel30 = test system: SkMel30
UACC62 = test system: UACC62
WM115 = test system: WM115
WM1716 = test system: WM1716
WM1745 = test system: WM1745
WM3526 = test system: WM3526
WM3619 = test system: WM3619
WM451Lu = test system: WM451Lu

Structure (SMILES) | cleaved PARP positive nuclei fraction (MZ2-MEL) [%] | cleaved PARP positive nuclei fraction (MeWo) [%] | cleaved PARP positive nuclei fraction (RPMI7951) [%] | cleaved PARP positive nuclei fraction (RVH-421) [%] | cleaved PARP positive nuclei fraction (SkMel28) [%] | cleaved PARP positive nuclei fraction (SkMel2) [%] | cleaved PARP positive nuclei fraction (SkMel30) [%] | cleaved PARP positive nuclei fraction (UACC62) [%] | cleaved PARP positive nuclei fraction (WM115) [%] | cleaved PARP positive nuclei fraction (WM1716) [%] | cleaved PARP positive nuclei fraction (WM1745) [%] | cleaved PARP positive nuclei fraction (WM3526) [%] | cleaved PARP positive nuclei fraction (WM3619) [%] | cleaved PARP positive nuclei fraction (WM451Lu) [%]
CCCCCCCCCCCCCCCCCCOP(=O)([O-])OC1CC[N+](C)(C)CC1 [Perifosine] + Clc1ccc(Nc2nnc(Cc3ccncc3)c3ccccc23)cc1 [vatalanib] (first compound 0.4 µM, partner dose 2 µM) | 126 | 94.5 | 66.2 | 96.2 | 80.2 | 100 | 71.7 | 52.3 | 80.6 | 95.7 | 99.8 | 84.9 | 102 | 38.1
Cc1ccc(Nc2nccc(N(C)c3ccc4c(C)n(C)nc4c3)n2)cc1S(N)(=O)=O [Pazopanib] + Cc1cc(Nc2cc(N3CCN(C)CC3)nc(/C=C/c3ccccc3)n2)n[nH]1 [ENMD2076] (first compound 0.4 µM, partner dose 0.04 µM) | 72.8 | 57.3 | 111 | 131 | 94.4 | 101 | 22.5 | 75.7 | 157 | 160 | 87.7 | 143 | 120 | 96.8
O=C(Nc1cc(C(F)(F)F)cc(C(F)(F)F)c1)c1cc(Cl)ccc1O + OCc1c[nH]c2ccccc12 [Indole-3-carbinol] (first compound 0.016 µM, partner dose 0.8 µM) | 119 | 119 | 125 | 74.3 | 92 | 121 | 95.6 | 315 | 78.4 | 72.5 | 84.8 | 59.3 | 105 | 53.2
CCCCCCCCCCCCCCCCCCOP(=O)([O-])OC1CC[N+](C)(C)CC1 [Perifosine] + O=c1[nH]nc(Sc2ncc([N+](=O)[O-])s2)n1-c1ccc2c(c1)OCCO2 [BI78D3] (first compound 0.4 µM, partner dose 0.2 µM) | 77.3 | 103 | 60.6 | 48.7 | 170 | 27.3 | 116 | 64.6 | 55.9 | 314 | 282 | 74.3 | 82.8 | 62.1
CC[C@]1(O)C[C@H]2CN(CCc3c([nH]c4ccccc34)[C@@](C(=O)OC)(c3cc4c(cc3OC)N(C=O)[C@H]3[C@@](O)(C(=O)OC)[C@H](OC(C)=O)[C@]5(CC)C=CCN6CC[C@]43[C@@H]65)C2)C1 [vincristine] + Clc1ccc(Nc2nnc(Cc3ccncc3)c3ccccc23)cc1 [vatalanib] (first compound 0.0001 µM, partner dose 2 µM) | 175 | 271 | 82.1 | 261 | 124 | 114 | 159 | 443 | 2320 | 557 | 136 | 81.6 | 202 | 258
CC[C@]1(O)C[C@H]2CN(CCc3c([nH]c4ccccc34)[C@@](C(=O)OC)(c3cc4c(cc3OC)N(C=O)[C@H]3[C@@](O)(C(=O)OC)[C@H](OC(C)=O)[C@]5(CC)C=CCN6CC[C@]43[C@@H]65)C2)C1 [vincristine] + Cc1cn(-c2cc(NC(=O)c3ccc(C)c(Nc4nccc(-c5cccnc5)n4)c3)cc(C(F)(F)F)c2)cn1 [nilotinib] (first compound 0.0001 µM, partner dose 0.2 µM) | 95.8 | 153 | 96.2 | 77.3 | 156 | 198 | 249 | 204 | 1510 | 232 | 135 | 118 | 228 | 88.1
Cc1ccc(Nc2nccc(N(C)c3ccc4c(C)n(C)nc4c3)n2)cc1S(N)(=O)=O [Pazopanib] + Cn1sc(=O)n(Cc2ccccc2)c1=O [TDZD-8] (first compound 0.4 µM, partner dose 0.4 µM) | 44.9 | 96.1 | 132 | 135 | 57.5 | 95.4 | 106 | 43.1 | 98.5 | 150 | 105 | 82.3 | 83.4 | 32.3
O=C(/C=C/c1cccnc1)NCCCCC1CCN(C(=O)c2ccccc2)CC1 + NC(=O)c1ccc(N(C(N)=O)c2c(F)cccc2F)nc1-c1ccc(F)cc1F [VX702] (first compound 0.01 µM, partner dose 0.4 µM) | 805 | 72.7 | 57.9 | 217 | 197 | 1040 | 97.2 | 263 | 234 | 41.6 | 101 | 87.1 | 127 | 107
COc1cc([C@@H]2c3cc4c(cc3[C@@H](O[C@@H]3O[C@@H]5CO[C@@H](C)O[C@H]5[C@H](O)[C@H]3O)[C@H]3COC(=O)[C@H]23)OCO4)cc(OC)c1O [etoposide] + Cn1c(=O)n(-c2ccc(C(C)(C)C#N)cc2)c2c3cc(-c4cnc5ccccc5c4)ccc3ncc21 [NVP-BEZ235] (first compound 0.02 µM, partner dose 0.004 µM) | 152 | 130 | 240 | 76.5 | 82.5 | 112 | 67.4 | 130 | 106 | 16.6 | 102 | 43.6 | 115 | 40.5
CC[C@]1(O)C[C@H]2CN(CCc3c([nH]c4ccccc34)[C@@](C(=O)OC)(c3cc4c(cc3OC)N(C=O)[C@H]3[C@@](O)(C(=O)OC)[C@H](OC(C)=O)[C@]5(CC)C=CCN6CC[C@]43[C@@H]65)C2)C1 [vincristine] + C[C@]1(O)C[C@@H](c2nc(-c3ccc4ccc(-c5ccccc5)nc4c3)c3c(N)nccn32)C1 [OSI906] (first compound 0.0001 µM, partner dose 0.4 µM) | 125 | 138 | 302 | 87.8 | 74.5 | 52.3 | 162 | 31.6 | 241 | 418 | 123 | 43.4 | 92.1 | 98.4
Cc1cc(Nc2cc(N3CCN(C)CC3)nc(Sc3ccc(NC(=O)C4CC4)cc3)n2)n[nH]1 [Tozasertib] + CCCS(=O)(=O)Nc1ccc(F)c(C(=O)c2c[nH]c3ncc(Cl)cc23)c1F [PLX4720] (first compound 0.006 µM, partner dose 0.08 µM) | 101 | 97.5 | 75.1 | 72.1 | 86.1 | 107 | 117 | 1270 | 167 | 33.5 | 105 | 290 | 99.1 | 32.4
O=C(Nc1cc(C(F)(F)F)cc(C(F)(F)F)c1)c1cc(Cl)ccc1O + O=c1[nH]nc(Sc2ncc([N+](=O)[O-])s2)n1-c1ccc2c(c1)OCCO2 [BI78D3] (first compound 0.016 µM, partner dose 0.2 µM) | 90.8 | 91.3 | 148 | 82.2 | 163 | 91.9 | 83.6 | 162 | 139 | 801 | 96 | 80.7 | 96.3 | 103
N#CC[C@H](C1CCCC1)n1cc(-c2ncnc3[nH]ccc23)cn1 [ruxolitinib] + Cn1c(Nc2ccc(C(F)(F)F)cc2)nc2cc(Oc3ccnc(-c4ncc(C(F)(F)F)[nH]4)c3)ccc21 [CHIR265] (first compound 1 µM, partner dose 0.08 µM) | 20.4 | 277 | 65.9 | 300 | 230 | 111 | 95.9 | 36.2 | 210 | 84 | 114 | 28.8 | 95.6 | 52.9
N#CC[C@H](C1CCCC1)n1cc(-c2ncnc3[nH]ccc23)cn1 [ruxolitinib] + COc1ccc(Cl)c(Nc2nc3ccccc3nc2NS(=O)(=O)c2cccc(NC(=O)C(C)(C)N)c2)c1 [XL147] (first compound 1 µM, partner dose 0.8 µM) | 152 | 102 | 36.2 | 30.1 | 41.3 | 123 | 22.3 | 58.2 | 114 | 40 | 83.8 | 190 | 93.5 | 69.9
O=C(Nc1cc(C(F)(F)F)cc(C(F)(F)F)c1)c1cc(Cl)ccc1O + CC1(C)CCC(c2ccc(Cl)cc2)=C(CN2CCN(c3ccc(C(=O)NS(=O)(=O)c4ccc(N[C@H](CCN5CCOCC5)CSc5ccccc5)c(S(=O)(=O)C(F)(F)F)c4)cc3)CC2)C1 [ABT263] (first compound 0.016 µM, partner dose 0.4 µM) | 124 | 329 | 158 | 158 | 83.5 | 121 | 163 | 222 | 243 | 105 | 246 | 94.9 | 128 | 105
O=c1[nH]nc(Sc2ncc([N+](=O)[O-])s2)n1-c1ccc2c(c1)OCCO2 + Cn1c(=O)n(-c2ccc(C(C)(C)C#N)cc2)c2c3cc(-c4cnc5ccccc5c4)ccc3ncc21 [NVP-BEZ235] (first compound 0.2 µM, partner dose 0.004 µM) | 59.3 | 72.5 | 105 | 65.5 | 232 | 67.5 | 138 | 55.7 | 94.9 | 68.6 | 99.8 | 204 | 118 | 93.4
CC[C@]1(O)C[C@H]2CN(CCc3c([nH]c4ccccc34)[C@@](C(=O)OC)(c3cc4c(cc3OC)N(C=O)[C@H]3[C@@](O)(C(=O)OC)[C@H](OC(C)=O)[C@]5(CC)C=CCN6CC[C@]43[C@@H]65)C2)C1 [vincristine] + Cn1sc(=O)n(Cc2ccccc2)c1=O [TDZD-8] (first compound 0.0001 µM, partner dose 0.4 µM) | 111 | 56.7 | 460 | 506 | 113 | 92.5 | 88.7 | 306 | 274 | 122 | 116 | 119 | 133 | 69
COc1cc([C@@H]2c3cc4c(cc3[C@@H](O[C@@H]3O[C@@H]5CO[C@@H](C)O[C@H]5[C@H](O)[C@H]3O)[C@H]3COC(=O)[C@H]23)OCO4)cc(OC)c1O [etoposide] + C=C(c1ccc(C(=O)O)cc1)c1cc2c(cc1C)C(C)(C)CCC2(C)C [Bexarotene] (first compound 0.02 µM, partner dose 2 µM) | 87.4 | 74.2 | 54.5 | 167 | 111 | 125 | 175 | 76.7 | 61.1 | 47.5 | 100 | 94.2 | 102 | 92.8

Shown in CSV form: part of the list above.
Structure (SMILES),cleaved PARP positive nuclei fraction (MZ2-MEL) [%],cleaved PARP positive nuclei fraction (MeWo) [%],cleaved PARP positive nuclei fraction (RPMI7951) [%],cleaved PARP positive nuclei fraction (RVH-421) [%],cleaved PARP positive nuclei fraction (SkMel28) [%],cleaved PARP positive nuclei fraction (SkMel2) [%],cleaved PARP positive nuclei fraction (SkMel30) [%],cleaved PARP positive nuclei fraction (UACC62) [%],cleaved PARP positive nuclei fraction (WM115) [%],cleaved PARP positive nuclei fraction (WM1716) [%],cleaved PARP positive nuclei fraction (WM1745) [%],cleaved PARP positive nuclei fraction (WM3526) [%],cleaved PARP positive nuclei fraction (WM3619) [%],cleaved PARP positive nuclei fraction (WM451Lu) [%]
"CC[C@]1(O)C[C@H]2CN(CCc3c([nH]c4ccccc34)[C@@](C(=O)OC)(c3cc4c(cc3OC)N(C=O)[C@H]3[C@@](O)(C(=O)OC)[C@H](OC(C)=O)[C@]5(CC)C=CCN6CC[C@]43[C@@H]65)C2)C1 [vincristine] + Clc1ccc(Nc2nnc(Cc3ccncc3)c3ccccc23)cc1 [vatalanib] (first compound 0.0001 µM, partner dose 2 µM)",175,271,82.1,261,124,114,159,443,2320,557,136,81.6,202,258
"CC[C@]1(O)C[C@H]2CN(CCc3c([nH]c4ccccc34)[C@@](C(=O)OC)(c3cc4c(cc3OC)N(C=O)[C@H]3[C@@](O)(C(=O)OC)[C@H](OC(C)=O)[C@]5(CC)C=CCN6CC[C@]43[C@@H]65)C2)C1 [vincristine] + Cc1cn(-c2cc(NC(=O)c3ccc(C)c(Nc4nccc(-c5cccnc5)n4)c3)cc(C(F)(F)F)c2)cn1 [nilotinib] (first compound 0.0001 µM, partner dose 0.2 µM)",95.8,153,96.2,77.3,156,198,249,204,1510,232,135,118,228,88.1
"Cc1ccc(Nc2nccc(N(C)c3ccc4c(C)n(C)nc4c3)n2)cc1S(N)(=O)=O [Pazopanib] + Cn1sc(=O)n(Cc2ccccc2)c1=O [TDZD-8] (first compound 0.4 µM, partner dose 0.4 µM)",44.9,96.1,132,135,57.5,95.4,106,43.1,98.5,150,105,82.3,83.4,32.3
"O=C(/C=C/c1cccnc1)NCCCCC1CCN(C(=O)c2ccccc2)CC1 + NC(=O)c1ccc(N(C(N)=O)c2c(F)cccc2F)nc1-c1ccc(F)cc1F [VX702] (first compound 0.01 µM, partner dose 0.4 µM)",805,72.7,57.9,217,197,1040,97.2,263,234,41.6,101,87.1,127,107
